Source: publication PMC5061727
No constants are given. Whether binding was seen depends on the method and setting. Some entries that bind do so weakly or less than the wild type. Sequences can lack the tags named with a protein.

Molecular target: T1, CD166 (human (endogenous in THP-1 and Raji)) (UniProt Q13740)
T1 sequence: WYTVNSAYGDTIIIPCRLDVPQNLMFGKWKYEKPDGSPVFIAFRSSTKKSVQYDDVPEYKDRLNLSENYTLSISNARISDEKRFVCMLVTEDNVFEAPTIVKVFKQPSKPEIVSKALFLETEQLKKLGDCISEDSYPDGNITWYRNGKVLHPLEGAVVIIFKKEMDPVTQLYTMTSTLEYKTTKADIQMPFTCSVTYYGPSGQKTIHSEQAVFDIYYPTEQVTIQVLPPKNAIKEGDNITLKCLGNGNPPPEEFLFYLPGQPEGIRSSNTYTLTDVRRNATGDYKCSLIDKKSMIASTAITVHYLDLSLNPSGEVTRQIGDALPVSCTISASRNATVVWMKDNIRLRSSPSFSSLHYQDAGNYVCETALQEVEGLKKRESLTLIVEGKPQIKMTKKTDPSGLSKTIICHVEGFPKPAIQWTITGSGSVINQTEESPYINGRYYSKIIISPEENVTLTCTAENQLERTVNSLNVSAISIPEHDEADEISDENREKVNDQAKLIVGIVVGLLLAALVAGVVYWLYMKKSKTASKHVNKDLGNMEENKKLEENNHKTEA
Assay: flow cytometry on cells; cell lines (Jurkat, K562, THP-1, Raji) incubated with sCD6 tetramers or sCD58 tetramers; streptavidin-PE as control; only the binder purified

B1: soluble extracellular domain of CD6 (HA-sCD6-BirA-His), as tetramers (domain or fragment, UniProt P30203 18-402)
chain: HPSPAPPDQLNTSSAESELWEPGERLPVRLTNGSSSCSGTVEVRLEASWEPACGALWDSRAAEAVCRALGCGGAEAASQLAPPTPELPPPPAAGNTSVAANATLAGAPALLCSGAEWRLCEVVEHACRSDGRRARVTCAENRALRLVDGGGACAGRVEMLEHGEWGSVCDDTWDLEDAHVVCRQLGCGWAVQALPGLHFTPGRGPIHRDQVNCSGAEAYLWDCPGLPGQHYCGHKEDAGAVCSEHQSWRLTGGADRCEGQVEVHFRGVWNTVCDSEWYPSEAKVLCQSLGCGTAVERPKGLPHSLSGRMYYSCNGEELTLSNCSWRFNNSNLCSQSLAARVLCSASRSLHNLSTPEVPASVQTVTIESSVTVKIENKESRELMLL
In the case of B1, the binding is reported as “binds”.
